Results reported in PMC12757373.
No constants are given. Whether binding was seen depends on the method and setting. Some binding calls cover weakened binding; strength is not graded here.

What was measured:
Test in all cases: non-reducing SDS-PAGE with Western blot; lysates of BMDMs treated with OXO for 1 h and then TNF-α for 2 h; samples in 2× SDS-PAGE loading buffer without DTT, boiled 5 min; oligomers detected by immunoblot
[1] = molecular target: GSDMD-NT (activated gasdermin D) (mouse (endogenous in BMDMs)) (UniProt Q9D8T2)
[2] = molecular target: GSDME-NT (activated gasdermin E) (mouse (endogenous in BMDMs)) (UniProt Q9Z2D3)
[3] = molecular target: phosphorylated mixed lineage kinase domain like pseudokinase (p-MLKL) (mouse (endogenous in BMDMs)) (UniProt Q9D2Y4)

B1: GSDMD-NT (activated gasdermin D) (domain or fragment, UniProt Q9D8T2 1-276)
chain: MPSAFEKVVKNVIKEVSGSRGDLIPVDSLRNSTSFRPYCLLNRKFSSSRFWKPRYSCVNLSIKDILEPSAPEPEPECFGSFKVSDVVDGNIQGRVMLSGMGEGKISGGAAVSDSSSASMNVCILRVTQKTWETMQHERHLQQPENKILQQLRSRGDDLFVVTEVLQTKEEVQITEVHSQEGSGQFTLPGALCLKGEGKGHQSRKKMVTIPAGSILAFRVAQLLIGSKWDILLVSDEKQRTFEPSSGDRKAVGQRHHGLNVLAALCSIGKQLSLLSD
Q: How did the binding [1] turn out when B1 was run?
A: The binding was “binds”.

B2: GSDME-NT (activated gasdermin E) (domain or fragment, UniProt Q9Z2D3 1-270)
chain: MFAKATRNFLKEVDAGGDLISVSHLNDSDKLQLLSLVTKKKRYWCWQRPKYQILSATLEDVLTEGHCLSPVVVESDFVKYESKCENHKSGAIGTVVGKVKLNVGGKGVVESHSSFGTLRKQEVDVQQLIQDAVKRTVNMDNLVLQQVLESRNEVLCVLTQKIMTTQKCVISEHVQSEETCGGMVGIQTKTIQVSATEDGTVTTDTNVVLEIPAATTIAYGIMELFVKQDGQFEFCLLQGKHGGFEHERKLDSVYLDPLAYREFAFLDMLD
Q: B2 was tested. Which binding [2] did it give?
A: Its binding is “binds”.

B3: phosphorylated mixed lineage kinase domain like pseudokinase (p-MLKL) (protein, UniProt Q9D2Y4 1-472)
chain: MDKLGQIIKLGQLIYEQCEKMKYCRKQCQRLGNRVHGLLQPLQRLQAQGKKNLPDDITAALGRFDEVLKEANQQIEKFSKKSHIWKFVSVGNDKILFHEVNEKLRDVWEELLLLLQVYHWNTVSDVSQPASWQQEDRQDAEEDGNENMKVILMQLQISVEEINKTLKQCSLKPTQEIPQDLQIKEIPKEHLGPPWTKLKTSKMSTIYRGEYHRSPVTIKVFNNPQAESVGIVRFTFNDEIKTMKKFDSPNILRIFGICIDQTVKPPEFSIVMEYCELGTLRELLDREKDLTMSVRSLLVLRAARGLYRLHHSETLHRNISSSSFLVAGGYQVKLAGFELSKTQNSISRTAKSTKAERSSSTIYVSPERLKNPFCLYDIKAEIYSFGIVLWEIATGKIPFEGCDSKKIRELVAEDKKQEPVGQDCPELLREIINECRAHEPSQRPSVDGRSLSGRERILERLSAVEESTDKKV
modifications: phosphorylated (site not given)
Q: B3 was tested. Which binding [3] did it give?
A: Its binding is “binds”.
